One molecule from US20240329063A1, “METHOD FOR EVALUATING RESIDUAL PLATELET THROMBOTIC POTENTIAL IN PATIENTS UNDERGOING ANTIPLATELET TREATMENT” (Centro Cardiologico Monzino S.P.A., priority 2021, published 2024) can be followed below.

SMILES strings stand for the structures.

In this data set the test system is TF. The following applies: clopidogrel 75 mg/day, good responders (PRI <60%). As to the method:
The in vitro experiments were conducted on 10 healthy volunteers (n=5 males and n=5 females; average age 39±6) who had not taken antiplatelet medicaments in the 10 days before the blood sample was taken. The effect of clopidogrel on TF expression was evaluated on 193 patients suffering from coronary artery disease (CAD) with myocardial infarction with non-ST elevation. […] The clinical characteristics of the patients enrolled are set out in Table 1.
The exclusion criteria were: age >80 years, valvular heart disease, atrial fibrillation, thyrotoxicosis, history of haemorrhagic diathesis, platelet disorder or thrombocytopenia, anticoagulant or thrombolytic treatment. A subject with severe congenital P2Y12 deficiency (person) was also studied.
Whole blood (WB) samples were taken with a 19 gauge needle without venous stasis in tubes containing sodium citrate (0.129 M, 1/10 volume/volume) (Vacutainer, Becton Dickinson), discarding the first 4 ml. […] The platelet-rich plasma (PRP) was transferred to a new test tube and analysed with the Sysmex XE-2100 Automated Hematology Analyzer to determine the platelet count, mean platelet volume (MPV), platelet distribution […] (PDW), platelet recovery (defined as the percentage of the platelet count in the PRP to 100% of the number of platelets in the WB), and leukocyte contamination. […]

Turning to `COC(=O)[C@H](c1ccccc1Cl)N1CCc2sccc2C1` [clopidogrel], the “good responders with a percentage of TF-positive platelets exceeding the average measured in poor responders” value (23 of 144) came to 15%. In addition, the “good responders exceeding the poor responders by average amount of TF expressed on the platelet surface (MFI)” value (FIG. 2) is recorded as 38%.
